{"source": "PubChem BioAssay AID1508597 (Cure First, 2020)", "assay": "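Survival screen with siRNA in ovarian cancer cells derived from patients, with or without rucaparib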 (primary screen)", "system": "human ovarian carcinoma lines grown from tumours: OCI-P5x (papillary serous) and OCI-C5x (clear cell)", "knock-down reagent": "siRNA pool against human genes, 1.25 pmol siRNA per well", "duration": "72 h or 96 h, depending on the cell culture", "treatment": "rucaparib 20 µM (about IC30) or vehicle, present until read-out", "rucaparib or vehicle": "Rucaparib", "cell line": "OCI-C5x (clear cell)", "measurement": "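ATP luminescence measured at 72 or 96 h according to the culture, then normalised and expressed as percent viability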", "direction": "viability, normalised: higher = more viable cells remaining", "call rule": "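a well counts as a hit if its normalised viability is under 80 percent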", "calls": "active = viability under 80%; inactive = viability 80% or more", "note": "Shown is a random part of the about 2,100 reagents, under one of the conditions tested. 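Calls flag viability under 80% in either arm, not effects specific to rucaparib; the reference for percent is not stated.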 A reagent listed more than once was tested more than once; the source does not tell the runs apart. No sequences are given here. The record does not give: the 100% reference."}
{"gene knocked down":"XRCC1 (X-ray repair cross complementing 1)","technical replicate":"1","viability, normalised (%)":60.8,"Call":"active"}
{"gene knocked down":"XRCC1 (X-ray repair cross complementing 1)","technical replicate":"2","viability, normalised (%)":68.1,"Call":"active"}
{"gene knocked down":"XRCC1 (X-ray repair cross complementing 1)","technical replicate":"3","viability, normalised (%)":71.8,"Call":"active"}
{"gene knocked down":"CASP3 (caspase 3)","technical replicate":"1","viability, normalised (%)":61.5,"Call":"active"}
{"gene knocked down":"CASP3 (caspase 3)","technical replicate":"2","viability, normalised (%)":46,"Call":"active"}
{"gene knocked down":"CASP3 (caspase 3)","technical replicate":"3","viability, normalised (%)":30.8,"Call":"active"}
{"gene knocked down":"MAPK12 (mitogen-activated protein kinase 12)","technical replicate":"1","viability, normalised (%)":49.6,"Call":"active"}
{"gene knocked down":"MAPK12 (mitogen-activated protein kinase 12)","technical replicate":"2","viability, normalised (%)":66.8,"Call":"active"}
{"gene knocked down":"MAPK12 (mitogen-activated protein kinase 12)","technical replicate":"3","viability, normalised (%)":38,"Call":"active"}

Continued (3 carried over from the part before).
{"gene knocked down":"MAPK12 (mitogen-activated protein kinase 12)","technical replicate":"1","viability, normalised (%)":49.6,"Call":"active"}
{"gene knocked down":"MAPK12 (mitogen-activated protein kinase 12)","technical replicate":"2","viability, normalised (%)":66.8,"Call":"active"}
{"gene knocked down":"MAPK12 (mitogen-activated protein kinase 12)","technical replicate":"3","viability, normalised (%)":38,"Call":"active"}
{"gene knocked down":"DNAJC2 (DnaJ heat shock protein family (Hsp40) member C2)","technical replicate":"1","viability, normalised (%)":41.1,"Call":"active"}
{"gene knocked down":"DNAJC2 (DnaJ heat shock protein family (Hsp40) member C2)","technical replicate":"2","viability, normalised (%)":34.5,"Call":"active"}
{"gene knocked down":"DNAJC2 (DnaJ heat shock protein family (Hsp40) member C2)","technical replicate":"3","viability, normalised (%)":41.2,"Call":"active"}
{"gene knocked down":"TERT (telomerase reverse transcriptase)","technical replicate":"1","viability, normalised (%)":48,"Call":"active"}
{"gene knocked down":"TERT (telomerase reverse transcriptase)","technical replicate":"2","viability, normalised (%)":54.8,"Call":"active"}
{"gene knocked down":"TERT (telomerase reverse transcriptase)","technical replicate":"3","viability, normalised (%)":45.3,"Call":"active"}
{"gene knocked down":"PDE5A (phosphodiesterase 5A)","technical replicate":"1","viability, normalised (%)":58.7,"Call":"active"}
{"gene knocked down":"PDE5A (phosphodiesterase 5A)","technical replicate":"2","viability, normalised (%)":41.4,"Call":"active"}
{"gene knocked down":"PDE5A (phosphodiesterase 5A)","technical replicate":"3","viability, normalised (%)":44.1,"Call":"active"}
{"gene knocked down":"AURKA (aurora kinase A)","technical replicate":"1","viability, normalised (%)":67.8,"Call":"active"}
{"gene knocked down":"AURKA (aurora kinase A)","technical replicate":"1","viability, normalised (%)":39.3,"Call":"active"}
{"gene knocked down":"AURKA (aurora kinase A)","technical replicate":"2","viability, normalised (%)":34.1,"Call":"active"}
{"gene knocked down":"AURKA (aurora kinase A)","technical replicate":"2","viability, normalised (%)":47.3,"Call":"active"}
{"gene knocked down":"AURKA (aurora kinase A)","technical replicate":"3","viability, normalised (%)":54.6,"Call":"active"}
{"gene knocked down":"AURKA (aurora kinase A)","technical replicate":"3","viability, normalised (%)":39.8,"Call":"active"}
